The entries are a selection whose mix differs from that of the whole data set.
Compound: COC(=O)C#Cc1ccccc1 [methyl 3-phenylpropiolate]
Assay: log2 ratio of iodoacetamide-alkyne labeling of the cysteine site, DMSO over compound (competition); higher = stronger covalent engagement of the cysteine by the compound, active = 1 or more
Details: 500 µM; treatment time 1 h; system: HEK293T cell lysate
Outline: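 Reporter intensities give each cysteine's log2 competition ratio as the mean of control channels over the mean of compound channels. The samples were HEK293T lysate (2 mg/mL) given vehicle or electrophile (500 µM, 1 h, ambient temperature), then iodoacetamide alkyne (1 h), followed by click coupling to sCIP-TMT reagents, pooling, trypsin digestion overnight at 37 °C, streptavidin enrichment, acid elution, Orbitrap Eclipse LC-MS/MS with FAIMS and FragPipe quantification. Duplicate channels and three replicates were run, and cysteines quantified in only one replicate were discarded.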

By UniProt entry, the sequences of proteins in these tests, tags left out. Where a name states a change or a piece, a line headed by the entry shows the natural chain unless it says otherwise.
UniProt Q9Y3A3: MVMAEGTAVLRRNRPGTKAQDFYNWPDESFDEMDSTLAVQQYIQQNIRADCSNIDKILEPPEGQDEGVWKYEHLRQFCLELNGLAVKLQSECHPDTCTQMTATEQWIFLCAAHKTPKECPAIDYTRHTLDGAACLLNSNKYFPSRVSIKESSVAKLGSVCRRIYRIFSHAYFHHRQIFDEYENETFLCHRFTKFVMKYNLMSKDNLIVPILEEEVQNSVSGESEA
UniProt Q9UJS0: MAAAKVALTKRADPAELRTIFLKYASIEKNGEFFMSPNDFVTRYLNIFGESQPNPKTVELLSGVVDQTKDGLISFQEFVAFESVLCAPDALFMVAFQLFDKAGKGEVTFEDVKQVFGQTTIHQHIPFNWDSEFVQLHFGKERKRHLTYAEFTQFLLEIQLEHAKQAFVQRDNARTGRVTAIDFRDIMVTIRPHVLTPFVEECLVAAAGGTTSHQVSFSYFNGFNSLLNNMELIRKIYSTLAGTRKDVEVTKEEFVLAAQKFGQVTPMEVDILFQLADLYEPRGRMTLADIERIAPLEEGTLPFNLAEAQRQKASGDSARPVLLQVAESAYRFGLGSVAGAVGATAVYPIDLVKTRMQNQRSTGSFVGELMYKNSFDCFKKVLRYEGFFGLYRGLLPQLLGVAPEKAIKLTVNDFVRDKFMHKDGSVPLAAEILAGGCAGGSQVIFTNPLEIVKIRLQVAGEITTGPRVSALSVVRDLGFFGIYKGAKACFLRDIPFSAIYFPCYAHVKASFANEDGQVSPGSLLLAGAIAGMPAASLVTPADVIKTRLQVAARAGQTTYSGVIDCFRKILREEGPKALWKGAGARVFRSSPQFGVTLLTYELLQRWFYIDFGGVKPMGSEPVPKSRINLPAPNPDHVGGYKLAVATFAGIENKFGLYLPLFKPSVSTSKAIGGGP
UniProt Q9UNE7: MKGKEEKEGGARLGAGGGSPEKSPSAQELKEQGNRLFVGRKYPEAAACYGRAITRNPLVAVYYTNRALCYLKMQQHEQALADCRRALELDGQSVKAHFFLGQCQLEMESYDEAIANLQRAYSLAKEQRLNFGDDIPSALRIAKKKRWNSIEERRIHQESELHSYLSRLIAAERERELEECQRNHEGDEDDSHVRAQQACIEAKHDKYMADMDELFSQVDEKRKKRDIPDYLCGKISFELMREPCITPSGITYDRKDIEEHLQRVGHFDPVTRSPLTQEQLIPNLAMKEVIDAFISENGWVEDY
UniProt Q9UKV3: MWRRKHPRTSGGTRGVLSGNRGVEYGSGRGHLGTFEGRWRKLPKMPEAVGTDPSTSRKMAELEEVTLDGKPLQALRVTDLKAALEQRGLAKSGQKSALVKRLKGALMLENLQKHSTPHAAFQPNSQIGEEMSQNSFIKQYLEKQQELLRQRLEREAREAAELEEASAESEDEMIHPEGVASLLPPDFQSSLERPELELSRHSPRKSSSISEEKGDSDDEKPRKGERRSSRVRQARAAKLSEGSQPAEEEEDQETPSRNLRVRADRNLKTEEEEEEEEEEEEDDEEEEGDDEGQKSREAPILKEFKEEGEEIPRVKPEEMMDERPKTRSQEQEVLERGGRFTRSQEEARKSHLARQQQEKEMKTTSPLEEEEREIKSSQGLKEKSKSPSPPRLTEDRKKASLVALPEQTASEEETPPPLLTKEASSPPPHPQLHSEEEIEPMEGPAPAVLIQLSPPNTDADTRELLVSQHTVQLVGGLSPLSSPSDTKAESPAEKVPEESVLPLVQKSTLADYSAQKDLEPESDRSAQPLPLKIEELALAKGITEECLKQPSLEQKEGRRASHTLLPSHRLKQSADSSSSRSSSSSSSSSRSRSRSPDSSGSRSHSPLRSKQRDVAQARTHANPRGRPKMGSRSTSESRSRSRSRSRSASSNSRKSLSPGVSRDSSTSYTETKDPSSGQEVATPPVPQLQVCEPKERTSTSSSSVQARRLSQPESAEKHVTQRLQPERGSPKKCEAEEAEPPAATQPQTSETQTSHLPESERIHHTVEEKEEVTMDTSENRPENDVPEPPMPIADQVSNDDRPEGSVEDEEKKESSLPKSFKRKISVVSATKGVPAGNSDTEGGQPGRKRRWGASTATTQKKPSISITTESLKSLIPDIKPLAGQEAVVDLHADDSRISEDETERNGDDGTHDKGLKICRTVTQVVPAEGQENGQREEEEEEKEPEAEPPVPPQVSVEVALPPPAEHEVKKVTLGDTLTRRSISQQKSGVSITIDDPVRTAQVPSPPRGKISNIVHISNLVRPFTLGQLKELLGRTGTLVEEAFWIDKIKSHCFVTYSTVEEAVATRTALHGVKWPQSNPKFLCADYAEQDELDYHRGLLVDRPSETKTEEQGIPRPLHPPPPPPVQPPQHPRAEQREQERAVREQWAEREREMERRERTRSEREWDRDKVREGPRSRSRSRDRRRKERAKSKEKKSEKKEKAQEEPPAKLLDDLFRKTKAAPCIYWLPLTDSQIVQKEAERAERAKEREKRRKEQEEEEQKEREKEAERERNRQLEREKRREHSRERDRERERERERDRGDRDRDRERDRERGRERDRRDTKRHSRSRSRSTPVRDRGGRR
UniProt Q9UL46, whole entry: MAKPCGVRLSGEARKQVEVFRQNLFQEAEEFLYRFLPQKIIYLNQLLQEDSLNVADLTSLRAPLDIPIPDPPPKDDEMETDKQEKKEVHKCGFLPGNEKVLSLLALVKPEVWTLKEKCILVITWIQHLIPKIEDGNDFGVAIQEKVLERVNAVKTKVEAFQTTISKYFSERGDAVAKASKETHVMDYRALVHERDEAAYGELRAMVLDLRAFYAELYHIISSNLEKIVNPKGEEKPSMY
UniProt Q9UKN8: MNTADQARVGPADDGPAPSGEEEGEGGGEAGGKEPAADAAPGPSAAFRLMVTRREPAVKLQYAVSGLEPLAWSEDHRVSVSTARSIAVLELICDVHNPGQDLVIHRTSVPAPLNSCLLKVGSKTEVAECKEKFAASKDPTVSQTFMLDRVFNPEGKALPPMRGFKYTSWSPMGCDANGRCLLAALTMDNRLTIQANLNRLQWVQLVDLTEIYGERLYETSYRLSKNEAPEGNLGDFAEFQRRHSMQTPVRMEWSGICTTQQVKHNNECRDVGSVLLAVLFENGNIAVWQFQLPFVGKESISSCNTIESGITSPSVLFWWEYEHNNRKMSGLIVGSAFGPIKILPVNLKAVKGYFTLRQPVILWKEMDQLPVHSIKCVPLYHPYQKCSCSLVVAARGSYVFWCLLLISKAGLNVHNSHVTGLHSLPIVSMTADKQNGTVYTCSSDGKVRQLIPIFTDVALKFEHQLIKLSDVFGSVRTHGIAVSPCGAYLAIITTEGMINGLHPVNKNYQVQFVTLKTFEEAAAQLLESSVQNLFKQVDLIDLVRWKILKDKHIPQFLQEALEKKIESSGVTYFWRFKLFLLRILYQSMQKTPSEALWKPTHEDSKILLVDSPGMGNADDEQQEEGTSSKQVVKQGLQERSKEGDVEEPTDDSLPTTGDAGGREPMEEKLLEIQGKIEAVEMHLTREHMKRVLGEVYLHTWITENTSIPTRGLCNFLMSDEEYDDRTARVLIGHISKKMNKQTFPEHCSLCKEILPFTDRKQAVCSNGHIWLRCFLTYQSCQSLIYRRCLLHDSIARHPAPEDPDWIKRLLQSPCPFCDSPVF
UniProt Q9Y2P8: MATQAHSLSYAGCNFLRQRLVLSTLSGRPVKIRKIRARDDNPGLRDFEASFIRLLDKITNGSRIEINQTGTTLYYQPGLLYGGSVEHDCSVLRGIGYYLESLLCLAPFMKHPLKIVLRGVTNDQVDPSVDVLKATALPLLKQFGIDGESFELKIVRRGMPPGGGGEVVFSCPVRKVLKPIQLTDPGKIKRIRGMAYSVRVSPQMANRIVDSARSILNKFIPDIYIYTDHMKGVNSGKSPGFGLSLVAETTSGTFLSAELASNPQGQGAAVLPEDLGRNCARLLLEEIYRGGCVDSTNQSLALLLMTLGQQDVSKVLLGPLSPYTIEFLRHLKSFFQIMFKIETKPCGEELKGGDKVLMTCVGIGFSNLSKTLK
UniProt Q9Y2X3: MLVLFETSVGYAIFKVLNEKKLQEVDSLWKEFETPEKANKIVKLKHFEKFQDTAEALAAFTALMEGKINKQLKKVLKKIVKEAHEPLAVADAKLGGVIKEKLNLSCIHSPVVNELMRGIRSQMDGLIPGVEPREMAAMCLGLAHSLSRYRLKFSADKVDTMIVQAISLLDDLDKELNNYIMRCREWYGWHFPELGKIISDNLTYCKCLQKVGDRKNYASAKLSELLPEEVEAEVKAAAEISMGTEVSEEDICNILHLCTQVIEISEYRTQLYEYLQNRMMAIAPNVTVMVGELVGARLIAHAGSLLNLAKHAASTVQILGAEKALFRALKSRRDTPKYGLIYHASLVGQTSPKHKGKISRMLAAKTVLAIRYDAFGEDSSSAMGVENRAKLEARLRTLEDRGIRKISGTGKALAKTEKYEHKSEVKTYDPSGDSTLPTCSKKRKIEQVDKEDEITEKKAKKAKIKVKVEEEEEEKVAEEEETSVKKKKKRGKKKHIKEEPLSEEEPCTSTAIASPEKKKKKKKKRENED
UniProt Q9UMS4: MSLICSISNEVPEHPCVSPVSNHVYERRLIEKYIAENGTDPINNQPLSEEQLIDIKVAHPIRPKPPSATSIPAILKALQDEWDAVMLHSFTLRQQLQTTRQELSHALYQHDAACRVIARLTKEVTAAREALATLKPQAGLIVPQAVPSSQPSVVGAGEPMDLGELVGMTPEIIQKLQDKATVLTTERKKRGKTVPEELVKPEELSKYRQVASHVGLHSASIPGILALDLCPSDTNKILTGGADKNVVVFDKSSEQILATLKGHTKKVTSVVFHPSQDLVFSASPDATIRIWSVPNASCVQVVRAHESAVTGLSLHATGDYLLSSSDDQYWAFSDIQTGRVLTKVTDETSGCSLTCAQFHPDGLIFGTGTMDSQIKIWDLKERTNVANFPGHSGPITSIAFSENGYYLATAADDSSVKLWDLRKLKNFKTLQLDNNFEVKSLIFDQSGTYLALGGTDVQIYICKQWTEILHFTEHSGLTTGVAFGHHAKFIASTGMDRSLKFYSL
UniProt Q9UHW5, whole entry, looked up: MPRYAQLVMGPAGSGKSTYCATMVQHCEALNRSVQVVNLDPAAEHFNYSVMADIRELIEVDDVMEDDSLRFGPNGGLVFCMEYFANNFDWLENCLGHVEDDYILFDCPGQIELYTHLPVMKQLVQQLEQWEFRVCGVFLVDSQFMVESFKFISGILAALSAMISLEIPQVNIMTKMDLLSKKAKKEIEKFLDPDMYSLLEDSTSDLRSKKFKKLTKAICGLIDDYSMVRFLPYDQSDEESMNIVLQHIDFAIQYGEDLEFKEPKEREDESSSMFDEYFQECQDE
UniProt Q9UM54, whole entry, looked up: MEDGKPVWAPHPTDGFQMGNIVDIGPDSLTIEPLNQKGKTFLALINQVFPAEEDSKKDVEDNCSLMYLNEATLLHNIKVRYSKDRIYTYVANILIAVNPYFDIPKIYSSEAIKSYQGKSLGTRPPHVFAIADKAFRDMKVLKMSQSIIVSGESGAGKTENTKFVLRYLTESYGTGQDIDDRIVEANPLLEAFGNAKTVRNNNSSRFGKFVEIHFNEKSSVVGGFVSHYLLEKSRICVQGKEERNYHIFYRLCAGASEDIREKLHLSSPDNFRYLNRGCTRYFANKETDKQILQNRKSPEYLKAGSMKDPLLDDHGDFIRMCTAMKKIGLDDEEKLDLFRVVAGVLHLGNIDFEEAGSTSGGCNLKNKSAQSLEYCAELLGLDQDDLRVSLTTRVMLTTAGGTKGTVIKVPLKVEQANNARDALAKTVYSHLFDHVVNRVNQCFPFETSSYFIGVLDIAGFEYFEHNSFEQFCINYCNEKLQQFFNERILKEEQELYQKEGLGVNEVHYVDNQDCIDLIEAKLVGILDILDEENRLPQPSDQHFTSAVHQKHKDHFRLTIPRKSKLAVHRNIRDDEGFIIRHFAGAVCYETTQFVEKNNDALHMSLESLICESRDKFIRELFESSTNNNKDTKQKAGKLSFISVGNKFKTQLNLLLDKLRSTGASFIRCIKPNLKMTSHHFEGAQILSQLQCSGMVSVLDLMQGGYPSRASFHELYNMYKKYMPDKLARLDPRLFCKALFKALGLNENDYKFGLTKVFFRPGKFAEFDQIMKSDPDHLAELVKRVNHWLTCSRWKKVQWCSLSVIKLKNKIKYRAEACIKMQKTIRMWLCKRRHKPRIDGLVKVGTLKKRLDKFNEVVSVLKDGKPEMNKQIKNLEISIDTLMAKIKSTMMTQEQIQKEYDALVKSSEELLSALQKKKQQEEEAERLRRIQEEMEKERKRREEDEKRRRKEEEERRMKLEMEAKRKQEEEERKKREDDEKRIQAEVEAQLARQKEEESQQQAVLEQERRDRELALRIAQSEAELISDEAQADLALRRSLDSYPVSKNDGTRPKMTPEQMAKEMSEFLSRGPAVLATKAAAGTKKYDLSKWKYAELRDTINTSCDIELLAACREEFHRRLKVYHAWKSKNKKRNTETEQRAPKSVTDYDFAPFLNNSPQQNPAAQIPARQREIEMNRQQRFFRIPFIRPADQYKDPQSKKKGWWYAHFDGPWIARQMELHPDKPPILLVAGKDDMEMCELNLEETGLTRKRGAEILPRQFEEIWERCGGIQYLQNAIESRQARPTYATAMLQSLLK

Target | log2 ratio of iodoacetamide-alkyne labeling
UniProt Q9UPN4_C181 | inactive: 0.641
NISCH C185 (UniProt Q9Y2I1) | inactive: 0.0959
DBNL C97 (UniProt Q9UJU6) | inactive: 0.0952
UniProt Q9Y3A3_C134 | inactive: 0.13
SLC25A13 C565 (UniProt Q9UJS0) | inactive: 0.102
STUB1 C103 (UniProt Q9UNE7) | inactive: 0.185
ACIN1 C691 (UniProt Q9UKV3) | inactive: 0.212
PSME2 C91 (UniProt Q9UL46) | inactive: 0.468
HECTD1 C1995 (UniProt Q9ULT8) | inactive: 0.345
UniProt Q9UPN4_C159 | inactive: 0.5
BAZ1B C1045 (UniProt Q9UIG0) | inactive: 0.519
DCTN4 C30 (UniProt Q9UJW0) | inactive: -0.0368
ACIN1 C1223 (UniProt Q9UKV3) | inactive: 0.00206
GTF3C4 C817 (UniProt Q9UKN8) | inactive: 0.219
RCL1 C13 (UniProt Q9Y2P8) | inactive: -0.0901
NIP7 C36 (UniProt Q9Y221) | inactive: 0.0199
NOP58 C205 (UniProt Q9Y2X3) | inactive: 0.555
RABGEF1 C359 (UniProt Q9UJ41) | inactive: 0.223
STUB1 C48 (UniProt Q9UNE7) | inactive: 0.0575

Target | log2 ratio of iodoacetamide-alkyne labeling
RASAL2 C333 (UniProt Q9UJF2) | inactive: 0.326
PRPF19 C230 (UniProt Q9UMS4) | inactive: 0.231
SNX6 C348 (UniProt Q9UNH7) | inactive: 0.0168
STUB1 C199 (UniProt Q9UNE7) | inactive: 0.493
ABT1 C37 (UniProt Q9ULW3) | inactive: 0.596
AKAP8L C128 (UniProt Q9ULX6) | inactive: 0.249
ACOT9 C155 (UniProt Q9Y305) | inactive: -0.184
GPN3 C219 (UniProt Q9UHW5) | inactive: 0.0998
MYO6 C1236 (UniProt Q9UM54) | inactive: 0.0604
CPSF3 C527 (UniProt Q9UKF6) | inactive: 0.315
WNK2 C2062 (UniProt Q9Y3S1) | inactive: 0.515
PRR12 C322 (UniProt Q9ULL5) | inactive: 0.259
COG5 C64 (UniProt Q9UP83) | inactive: 0.802
UFC1 C116 (UniProt Q9Y3C8) | inactive: 0.115
UniProt Q9Y2K2_C223 | inactive: 0.545
TPX2 C594 (UniProt Q9ULW0) | inactive: 0.73
KIDINS220 C412 (UniProt Q9ULH0) | inactive: 0.0082
TDRKH C419 (UniProt Q9Y2W6) | inactive: 0.162

Looked up one by one from the list above, 2 records:
Target | log2 ratio of iodoacetamide-alkyne labeling
UFC1 C116 (UniProt Q9Y3C8) | inactive: 0.115
STUB1 C199 (UniProt Q9UNE7) | inactive: 0.493
